Measurements reported in PubChem BioAssay AID504808 (Drosophila RNAi Screening Center, 2011).
The screen tested about 21,000 reagents; shown is an unselected part of those that have a named target and a result. Over the whole deposit, 18 (0.084%) got an active call. 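Raw counts without plate normalisation, one of two replicates; the ratio scores behind the calls were not deposited.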 The numbers tell different reagents against one gene apart. The record does not give: the amount of reagent, the time to read-out.

Test: 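Fly genes required to hold E2F transcription in check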 (primary screen)
System: Drosophila S2 cells
Reagents: long dsRNA against Drosophila genes
Read-out: 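Firefly luciferase driven by E2F sites, normalised to Renilla luciferase on the same minimal promoter, measured by plate reader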
Scale: E2F firefly: higher = more E2F reporter activity; Renilla normaliser: higher = more normaliser reporter signal
Call rule: 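a knock-down counted as active when the firefly/Renilla E2F signal rose above 50%, a threshold chosen arbitrarily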

gene	reagent no.	E2F firefly, rep 1	Renilla normaliser, rep 1	outcome
Stam (Signal transducing adaptor molecule)	1	83900	3569	inactive
CG31126	1	1.08e5	5904	inactive
Polr2H (RNA polymerase II, I and III subunit H)	1	57527	3505	inactive
PTPMT1 (Protein tyrosine phosphatase, mitochondrial 1)	1	1.16e5	5844	inactive
Vmat (Vesicular monoamine transporter)	1	2862	203	inactive
Vmat (Vesicular monoamine transporter)	2	1.03e5	4192	inactive
CycH (Cyclin H)	1	1.32e5	7182	inactive
CheB93a (Chemosensory protein B 93a)	1	1.47e5	7302	inactive
Lsp2 (Larval serum protein 2)	1	1.21e5	7650	inactive
Lsp2 (Larval serum protein 2)	2	1.24e5	7283	inactive
CG32305	1	1.02e5	4489	inactive
CG11755	1	1.39e5	7073	inactive
Taf8 (TBP-associated factor 8)	1	1.16e5	5578	inactive
CG14448	1	1.52e5	7309	inactive
CG33263	1	1.29e5	6681	inactive
Surf1 (Surfeit 1)	1	85629	3833	inactive
Surf1 (Surfeit 1)	2	66308	3450	inactive
sesB (stress-sensitive B)	1	1.27e5	5700	inactive
ND-B16.6 (NADH dehydrogenase (ubiquinone) B16.6 subunit)	1	45897	3259	inactive
CG31098	1	1.13e5	5902	inactive
cdm (cadmus)	1	67942	3060	inactive
botv	1	86067	3291	inactive
CG42445	1	75401	3494	inactive
TTLL1B (Tubulin tyrosine ligase-like 1B)	1	85386	3575	inactive
Zip89B (Zinc/iron regulated transporter-related protein 89B)	1	1.22e5	7114	inactive
kek1 (kekkon 1)	1	92323	4187	inactive
Sec13 (Secretory 13)	1	65584	3042	inactive
Grx5 (Glutaredoxin 5)	1	2.11e5	10064	inactive
upd3 (unpaired 3)	1	1.54e5	7886	inactive
upd3 (unpaired 3)	2	1.62e5	7242	inactive
CG13614	1	96843	6616	inactive
Dnali1 (Dynein axonemal light intermediate chain 1)	1	78404	4065	inactive
Galt (Galactose-1-phosphate uridylyltransferase)	1	66391	3334	inactive
Mayo	1	1.24e5	6081	inactive
CG31265	1	1.19e5	6718	inactive
CG11779	1	75975	4201	inactive
Alg11 (ALG11, alpha-1,2-mannosyltransferase)	1	84939	3747	inactive
CG14756	1	1.32e5	4381	inactive
Tsp39D (Tetraspanin 39D)	1	1.03e5	4065	inactive
Itgbn (Integrin betanu subunit)	1	1.08e5	3834	inactive
CtBP (C-terminal Binding Protein)	1	62918	3892	inactive
CG14384	1	1.04e5	7783	inactive
CG14275	1	1.39e5	4853	inactive
CG15465	1	1.16e5	5087	inactive
CG14107	1	1.04e5	6738	inactive
CG9961	1	1.72e5	5325	inactive
CG6503	1	1.07e5	5502	inactive
AspRS (Aspartyl-tRNA synthetase)	1	3011	203	inactive
Nxt1 (NTF2-related export protein 1)	1	94233	4664	inactive
RpL38 (Ribosomal protein L38)	1	68358	5389	inactive
CG7768	1	76778	3686	inactive
eIF3b (eukaryotic translation initiation factor 3 subunit b)	1	1.03e5	4816	inactive
Phk-3 (Pherokine 3)	1	1.13e5	4493	inactive
CG18301	1	1.46e5	5606	inactive
CG12325	1	2898	174	inactive
Prosap	1	1.03e5	4381	inactive
Prosap	2	2844	94	inactive
Stoml2 (Stomatin like 2)	1	85094	3175	inactive
CG10543	1	86907	4310	inactive
CG7386	1	99108	4155	inactive
Ubc87F (Ubiquitin conjugating enzyme 87F)	1	1.24e5	7099	inactive
Psf1 (Partner of Sld Five 1)	1	78655	2881	inactive
Chc (Clathrin heavy chain)	1	7578	728	inactive
CG31344	1	1.08e5	5540	inactive
LSm3 (Like Sm 3)	1	1.17e5	6269	inactive
MED22 (Mediator complex subunit 22)	1	53805	4294	inactive
cpb (capping protein beta)	1	95027	4345	inactive
CG7460	1	1.75e5	10133	inactive
CG10194	1	77757	3813	inactive
CG13318	1	1.28e5	6326	inactive
CG4563	1	1.10e5	4587	inactive
Trm7-32 (tRNA methyltransferase 7-32)	1	73700	3537	inactive
sa (spermatocyte arrest)	1	1.38e5	6588	inactive
CG6051	1	1484	784	inactive
CG12341	1	1.58e5	4447	inactive
Spg7 (Paraplegin)	1	1.14e5	6069	inactive
siz (schizo)	1	1.28e5	5770	inactive
siz (schizo)	2	1.18e5	6136	inactive
siz (schizo)	3	1.24e5	5822	inactive
CG30110	1	1.71e5	5368	inactive
PGAP3 (Post-GPI attachment to proteins 3)	1	77980	3582	inactive
CG5111	1	98297	5731	inactive
CG3448	1	97572	3441	inactive
CG7544	1	50171	3662	inactive

In a second layout: entries from further up.
Chc (Clathrin heavy chain) | E2F firefly, rep 1 = 7578; Renilla normaliser, rep 1 = 728; outcome = inactive
CG31344 | E2F firefly, rep 1 = 1.08e5; Renilla normaliser, rep 1 = 5540; outcome = inactive
LSm3 (Like Sm 3) | E2F firefly, rep 1 = 1.17e5; Renilla normaliser, rep 1 = 6269; outcome = inactive
MED22 (Mediator complex subunit 22) | E2F firefly, rep 1 = 53805; Renilla normaliser, rep 1 = 4294; outcome = inactive
cpb (capping protein beta) | E2F firefly, rep 1 = 95027; Renilla normaliser, rep 1 = 4345; outcome = inactive
CG7460 | E2F firefly, rep 1 = 1.75e5; Renilla normaliser, rep 1 = 10133; outcome = inactive
CG10194 | E2F firefly, rep 1 = 77757; Renilla normaliser, rep 1 = 3813; outcome = inactive
CG13318 | E2F firefly, rep 1 = 1.28e5; Renilla normaliser, rep 1 = 6326; outcome = inactive
CG4563 | E2F firefly, rep 1 = 1.10e5; Renilla normaliser, rep 1 = 4587; outcome = inactive
